Where two headings read alike, the source gives them in different places.
Tests used:
[1] = 177Lu, pH 5.5, RT, data cited for comparison, cited from earlier work
[2] = Radiolabeling efficiency of bimodal chelators with 90Y; type: physicochemical; conditions: pH 5.5, RT, ITLC
[3] = Radiolabeling efficiency of bimodal chelators with 177Lu; type: physicochemical; conditions: pH 5.5, RT, ITLC
[4] = Radiolabeling efficiency of 5p-C-NETA and 5p-C-NETA-RGD with 177Lu; type: physicochemical; conditions: RT, 0.25M NH4OAc, pH 5.5, ITLC
[5] = Radiolabeling efficiency of 5p-C-NETA and 5p-C-NETA-RGD with 90Y; type: physicochemical; conditions: RT, 0.25M NH4OAc, pH 5.5, ITLC
[6] = Y-90 labeling efficiency (head of Table 11) of pyridyl-based chelator; type: physicochemical; conditions: Y-90, RT
[7] = Radiolabeling of pyridyl-containing chelators with 64Cu; type: physicochemical; conditions: RT

In the case of `O=C(O)CN1CCN(CC(=O)O)CCN(CC(CCCc2ccc([N+](=O)[O-])cc2)N(CC(=O)O)CC(=O)O)CC1` (stereo not shown) [Chelator 3p-C-NETA], the “Radiolabeling efficiency (%)” value ([1]; 1 min) is given as 100.0 ± 0.0%, the “Radiolabeling efficiency (%)” value ([1]; 10 min) is given as 100.0 ± 0.0% and the “Radiolabeling efficiency (%)” value ([1]; 20 min) is given as 100.0 ± 0.0%. For the same compound, the “Radiolabeling efficiency (%)” value ([1]; 30 min) was 100.0 ± 0.0% and the “Radiolabeling efficiency (%)” value ([1]; 60 min) was 100.0 ± 0.0%.

For `O=C(O)CN1CCN(CCN(CC(=O)O)CC(=O)O)CCN(CC(CCCc2ccc([N+](=O)[O-])cc2)N(CC(=O)O)CC(=O)O)CC1` (stereo not shown) [Chelator 1], the “Radiolabeling efficiency (%)” value ([2]; 1 min) was 97.0 ± 1.0%, the “Radiolabeling efficiency (%)” value ([2]; 10 min) was 99.0 ± 0.4% and the “Radiolabeling efficiency (%)” value ([2]; 20 min) was 99.7 ± 0.1%. For the same compound, the “Radiolabeling efficiency (%)” value ([2]; 30 min) was 99.7 ± 0.06%, the “Radiolabeling efficiency (%)” value ([2]; 60 min) was 99.8 ± 0.2% and the “Radiolabeling efficiency (%)” value ([3]; 1 min) was 97.4 ± 0.10%. The “Radiolabeling efficiency (%)” value ([3]; 10 min) was 98.6 ± 0.10%, the “Radiolabeling efficiency (%)” value ([3]; 20 min) was 99.3 ± 0.10% and the “Radiolabeling efficiency (%)” value ([3]; 30 min) was 99.4 ± 0.10%. For the same compound, the “Radiolabeling efficiency (%)” value ([3]; 60 min) was 99.5 ± 0.06%.

For `O=C(O)CN1CCN(CC(=O)O)CCN(CC(CCCCCc2ccc([N+](=O)[O-])cc2)N(CC(=O)O)CC(=O)O)CC1` (stereo not shown) [Chelator 5p-C-NETA, 2-({1-[4,7-bis(carboxymethyl)-1,4,7-triazonan-1-yl]-7-(4-nitrophenyl)heptan-2-yl}(carboxy-methyl)amino)acetic acid], the “Radiolabeling efficiency (%)” value ([4]; 1 min) was 99.6 ± 0.1%, the “Radiolabeling efficiency (%)” value ([4]; 5 min) was 99.7 ± 0.3% and the “Radiolabeling efficiency (%)” value ([4]; 10 min) was 99.6 ± 0.1%. For the same compound, the “Radiolabeling efficiency (%)” value ([4]; 20 min) was 99.7 ± 0.1%, the “Radiolabeling efficiency (%)” value ([4]; 30 min) was 99.8 ± 0.2% and the “Radiolabeling efficiency (%)” value ([4]; 60 min) was 99.9 ± 0.1%. The “Radiolabeling efficiency (%)” value ([5]; 1 min) was 99.3 ± 0.1%, the “Radiolabeling efficiency (%)” value ([5]; 5 min) was 99.7 ± 0.3% and the “Radiolabeling efficiency (%)” value ([5]; 10 min) was 99.8 ± 0.1%. For the same compound, the “Radiolabeling efficiency (%)” value ([5]; 20 min) was 99.8 ± 0.1%, the “Radiolabeling efficiency (%)” value ([5]; 30 min) was 99.9 ± 0.1% and the “Radiolabeling efficiency (%)” value ([5]; 60 min) was 100.0 ± 0.0%.

For `NCCCNC(=O)c1ccc(CN2CCN(CC(=O)O)CCN(CC(=O)O)CC2)nc1` [Chelator 13], the “Y-90 labeling efficiency (%)” value ([6]; pH 5.5, 1 min) was 11.3 ± 0.49%, the “Y-90 labeling efficiency (%)” value ([6]; pH 5.5, 5 min) was 53.4 ± 0.21% and the “Y-90 labeling efficiency (%)” value ([6]; pH 5.5, 30 min) was 82.1 ± 0.07%. The “Y-90 labeling efficiency (%)” value ([6]; pH 5.5, 60 min) was 92.6 ± 0.78%, the “Labeling Efficiency (%)” value ([7]; pH 5.5, 1 min) was 100 ± 0.07% and the “Labeling Efficiency (%)” value ([7]; pH 5.5, 10 min) was 100 ± 0.0%. For the same compound, the “Labeling Efficiency (%)” value ([7]; pH 5.5, 30 min) was 100 ± 0.0%.
